# From publication PMC7819943, “Rice protein-binding microarrays: a tool to detect cis-acting elements near promoter regions in rice”
# Amino acid sequences for entries named in this document (tags omitted).
# UniProt Q0JBA9, entry or part of it: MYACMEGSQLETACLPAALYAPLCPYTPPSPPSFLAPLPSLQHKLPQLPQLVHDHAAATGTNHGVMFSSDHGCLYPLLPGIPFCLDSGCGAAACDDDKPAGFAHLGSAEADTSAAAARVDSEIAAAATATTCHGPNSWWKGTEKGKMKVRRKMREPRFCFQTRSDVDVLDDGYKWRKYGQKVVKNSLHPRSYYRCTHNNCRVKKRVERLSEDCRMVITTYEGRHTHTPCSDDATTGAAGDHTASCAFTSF
# This is one part of the list.
# Biological target: OsWRKY34 (Oryza sativa, UniProt Q0JBA9 1-250)
# Assay: protein-binding microarray (RPBM); PBS, 2% BSA, 51.3 ng/ul salmon testes DNA, 50 uM zinc acetate, 200 nM TF, 25 C, 1 h; high values mean tight binding
# Conditions: protein: recombinant; tags: N-terminal polyhistidine and DsRed monomer fusion (pET32a); label: CyDye5-dUTP incorporated in the synthesized complementary strand; 3' TTTTT single-stranded linker to array surface; dsDNA, one strand shown
# Summary of the method: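 A custom Agilent array was converted to double-stranded form by primer extension with Cy5-dUTP and blocked with 2% BSA. Protein at 200 nM in PBS with 2% BSA, salmon testes DNA and 50 µM zinc acetate was applied for 1 h at 25 °C, followed by washing. The proteins were polyhistidine–DsRed N-terminal fusions of transcription factors, expressed in E. coli BL21-CodonPlus and Ni–NTA-purified. The binding signal is per-feature fluorescence intensity (arbitrary units) from an Axon 4000B scanner.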
row,Sequence,binding signal
1,GATGGAGAGGCTGTTGGAGTAAATAACTAGTTTGACTAGCCGGAGTCACCTAGTGCAG,8630 fluorescence intensity (a.u.)
2,TATCTACAAATTTAGTCAAACTTAAAGCAGTTTGACTTTACGGAGTCACCTAGTGCAG,11500 fluorescence intensity (a.u.)
3,CGCTCCTACACCGTCCGCCATAGCGATTCCCTTCCATCTCCGGAGTCACCTAGTGCAG,8780 fluorescence intensity (a.u.)
4,TAGGTTGTTTATTCTATCTTTTTTTGTTCTTATCAAACTACGGAGTCACCTAGTGCAG,8330 fluorescence intensity (a.u.)
5,GCGTTCCGGGAATTCTTCAACTGGGTCACACCACACGTCTCGGAGTCACCTAGTGCAG,10200 fluorescence intensity (a.u.)
6,GCATGAACCTCTGTCACCCTGTGAGACCACTCCAAACCTTCGGAGTCACCTAGTGCAG,8450 fluorescence intensity (a.u.)
7,CAAAGGCGGCAACGGCGGGGATGTGTGGGGAGGCGGCGGACGGAGTCACCTAGTGCAG,9250 fluorescence intensity (a.u.)
8,ACTAGACGTTTTATTTGTTTTGTTGATTATAATTAAACACCGGAGTCACCTAGTGCAG,8270 fluorescence intensity (a.u.)
9,TGGGTCTCTTGGGGTCGGTGGGGCGGTCGTCGTCCGTGCCCGGAGTCACCTAGTGCAG,11400 fluorescence intensity (a.u.)
10,GATGGAGTAGTTGCTTCGGACACCAACAACTTCTTTGCAACGGAGTCACCTAGTGCAG,8220 fluorescence intensity (a.u.)
11,GAGGCCATTGCACCAGCACGAATCACGAGGCAGATATTACCGGAGTCACCTAGTGCAG,8260 fluorescence intensity (a.u.)
12,CACTCTGCAGCTCTGCTCGTTTTGCACACGGGTGACTCGTCGGAGTCACCTAGTGCAG,9700 fluorescence intensity (a.u.)
13,GTGTTCTTTGTGGTTTTTGTTAATGTCTTTACTAGTTTTTCGGAGTCACCTAGTGCAG,14600 fluorescence intensity (a.u.)
14,TGCTGGGTTTGTGCGATTCGGATTTGGGTTCGGGGCCGGTCGGAGTCACCTAGTGCAG,9330 fluorescence intensity (a.u.)
15,GCGTAAGGTCTCTGATGTTCTCTTCTTTTGTACCGTTCATCGGAGTCACCTAGTGCAG,11300 fluorescence intensity (a.u.)
16,AAAATGAAAAATTCGTAATGTGTTTCTTTTATATCATTTTCGGAGTCACCTAGTGCAG,8250 fluorescence intensity (a.u.)
17,GCATCCCTATCGCAGAAGTCAAACCGGGCGGGGCCCATTCCGGAGTCACCTAGTGCAG,8120 fluorescence intensity (a.u.)
18,GCTCTCTTCTCGCCGCCTCGGCCTCGCCGCCGTGGCCGCCCGGAGTCACCTAGTGCAG,9500 fluorescence intensity (a.u.)
19,GTTGATACAGTGTCTCCCACTGAACGGCGACCACAGCTCACGGAGTCACCTAGTGCAG,8190 fluorescence intensity (a.u.)
20,GTGCATAGGGTTTCCGACTGGAATTGGGTTGGAGGGGCTTCGGAGTCACCTAGTGCAG,8120 fluorescence intensity (a.u.)
21,ACGGCATCAAATCTCTGTTTGTACATGTGCCCCTGTTCTTCGGAGTCACCTAGTGCAG,9440 fluorescence intensity (a.u.)
22,TTCATATTTCAATTTTCCTGTCATTGGTACTTTCACAATCCGGAGTCACCTAGTGCAG,8090 fluorescence intensity (a.u.)
23,CCGGGCCTAATATTCTCCCCTTGTCCCCATCATCGCTTGCCGGAGTCACCTAGTGCAG,8140 fluorescence intensity (a.u.)
24,CTACTAACTTCATATTTTAATGTATGATGCTGTTGACTTTCGGAGTCACCTAGTGCAG,9630 fluorescence intensity (a.u.)
25,ACGGCAATACCTGAAGCGACAATTGTTCTGAAACAAACCGCGGAGTCACCTAGTGCAG,8100 fluorescence intensity (a.u.)
26,ATGAACTTTGTACCGCATATTGATCTCTTACTAACTTACCCGGAGTCACCTAGTGCAG,10900 fluorescence intensity (a.u.)
27,CACCGTCTCCCTCCGCCGCCATCGTCGTCCCCGTCGCTTCCGGAGTCACCTAGTGCAG,8060 fluorescence intensity (a.u.)

# A different layout for part of the listing above:
row	Sequence	binding signal
20	GTGCATAGGGTTTCCGACTGGAATTGGGTTGGAGGGGCTTCGGAGTCACCTAGTGCAG	8120 fluorescence intensity (a.u.)
21	ACGGCATCAAATCTCTGTTTGTACATGTGCCCCTGTTCTTCGGAGTCACCTAGTGCAG	9440 fluorescence intensity (a.u.)
22	TTCATATTTCAATTTTCCTGTCATTGGTACTTTCACAATCCGGAGTCACCTAGTGCAG	8090 fluorescence intensity (a.u.)

# Carrying on:

row,Sequence,binding signal
1,TTCATTGTTCATCTATTTTGATCTTTTCTTGGGACATTTCCGGAGTCACCTAGTGCAG,14800 fluorescence intensity (a.u.)
2,GGGCGTGTGGTTGAGAACTTGATTGGGATGATGATGAGACCGGAGTCACCTAGTGCAG,10400 fluorescence intensity (a.u.)
3,ACCTCGGAAAGTACGGGGTTCTCGTCGGCTGGGTGGGTGTCGGAGTCACCTAGTGCAG,11500 fluorescence intensity (a.u.)
4,TTGCATTTGAAGACATGTAGTGTGTAGGGTGGGTTCTATTCGGAGTCACCTAGTGCAG,13500 fluorescence intensity (a.u.)
5,GGTGAGTTTTTTTTTTCTTTCAAATCTCACTCTCTTTTCTCGGAGTCACCTAGTGCAG,9010 fluorescence intensity (a.u.)
6,CTTGTCCGCTTAATTAAATTGATACCATTTTCGTTCTTGTCGGAGTCACCTAGTGCAG,9810 fluorescence intensity (a.u.)
7,ATCCACGGCCTCTCATCTGCTCCATCCAACGCCCGTCCTTCGGAGTCACCTAGTGCAG,8110 fluorescence intensity (a.u.)
8,GCACAGGGGCTGGTTTGGTCTCATAGTGATGCACTTGATACGGAGTCACCTAGTGCAG,10900 fluorescence intensity (a.u.)
9,TAGCCCGTACAGCTAAGCTAGCCACCTCCTCCTCTATTTTCGGAGTCACCTAGTGCAG,8370 fluorescence intensity (a.u.)
10,CTCTTCATTTTTTTAATAGATAGCGTCGTTGACTTTTGAACGGAGTCACCTAGTGCAG,14800 fluorescence intensity (a.u.)
11,CGCCTCCGCCTCCTTCTCTTCCCGTCCGTTCATCCAGATGCGGAGTCACCTAGTGCAG,9920 fluorescence intensity (a.u.)
12,TGCTTTGGTTGTCTTCTTTATCTAGAAGGCTTTGATTGCTCGGAGTCACCTAGTGCAG,9520 fluorescence intensity (a.u.)
13,ATCTGGCCTACAGCTCTATATAGGGTTGTCATCGCTTGCCCGGAGTCACCTAGTGCAG,8080 fluorescence intensity (a.u.)
14,CTACACTAGATCGACTAGGCTACTCTACTTCTCTTCTGGACGGAGTCACCTAGTGCAG,8280 fluorescence intensity (a.u.)
15,AAATTCTTCAGTTTTGACATATACCATTACTACGCCATTACGGAGTCACCTAGTGCAG,8660 fluorescence intensity (a.u.)
16,TTGCTTCCTTTGTCCTTACTGACATTATTACCTCAGAGACCGGAGTCACCTAGTGCAG,8870 fluorescence intensity (a.u.)
17,ATTGTCAGCCACTTTTCACATTTCTCGTCTATTCATTTTCCGGAGTCACCTAGTGCAG,15900 fluorescence intensity (a.u.)
18,TCTTATGGTATGTTTGATAGAGCTCGAACTCATAAATTTACGGAGTCACCTAGTGCAG,8250 fluorescence intensity (a.u.)
19,GGCACCACCATCCGTTGCTCATCATCTGACCTTTTCCTGACGGAGTCACCTAGTGCAG,11900 fluorescence intensity (a.u.)
20,ACCTGCAGCTCAAGCAAATCTCACTAGCTAACTATACAAACGGAGTCACCTAGTGCAG,8060 fluorescence intensity (a.u.)
21,TTGGTTTGAATTTGTTAGAGCGGGTGGGGATGGGCTGGATCGGAGTCACCTAGTGCAG,11700 fluorescence intensity (a.u.)
22,TCGTCGCTCCCATCTCCACTCGTCTCGACGCATCCGAGATCGGAGTCACCTAGTGCAG,8500 fluorescence intensity (a.u.)
23,TTTCTCTGAAGCTCATTATAGACCAGCTTTTGTAATCATGCGGAGTCACCTAGTGCAG,9040 fluorescence intensity (a.u.)
24,CTCAACATGGTAGGCTAACTTTCTCACCTCTGCAATCCAACGGAGTCACCTAGTGCAG,8810 fluorescence intensity (a.u.)
25,GCCCACCATCCTTCCGGTTCTCCAGCTACGCAACAATAATCGGAGTCACCTAGTGCAG,8650 fluorescence intensity (a.u.)
26,ATTGCCACACTCTTTTCATATGCACAAAAATAACCTAGAACGGAGTCACCTAGTGCAG,9680 fluorescence intensity (a.u.)
27,ACCACATCCACTGCCGCGCCACGCCTCTCGGCCGCCACACCGGAGTCACCTAGTGCAG,10300 fluorescence intensity (a.u.)
